Assay: PAMPA-BBB assay
Format: in vitro ADME
Protocol: BBB-PAMPA was conducted by manufacturer’s instruction (pION Inc, MA, USA). […] Transmembrane side to donor part was coated with BBB lipid solution and add 200 μL acceptor buffer in upper part of PAMPA sandwich plate.

CCN(CC)CC(=O)Nc1c(C)cccc1C [Lidocaine]
CNS +/− classification (PAMPA-BBB): CNS + (CNS + indicates (Pe > 10)) | Papp at 4 h, 25 μM (PAMPA, 25 μM, pH 7.4, 4 h, 25 °C, mean ± SD, three independent experiments, read-out: Pe): 190 ± 30.5 nm/s

Source: publication PMC6742641, “Design, synthesis and biological evaluation of a series of CNS penetrant HDAC inhibitors structurally derived from amyloid-β probes” (Scientific Reports, 2019)
